Data published in patent publication US9289510 (dated 2016).

Assay: general procedure: Fmoc solid-phase peptide synthesis; 2-chlorotrityl chloride resin; HBTU/DIPEA; DIC or DIC/HOBt for capping groups
Details: for conjugation yield: conjugation step; for step yield: late stage modification step
[1] = whole synthesis, scale 0.04 mmol loading

2′-O-methacryloylglycylphenylalanylleucylglycyl-paclitaxel (MA-GFLG-PTX)
conjugation yield: 68%

N-methacryloylglycylphenylalanylleucylglycyl-aminomalonic acid (MA-GFLG-malonic Acid)
step yield: 76%

N-methacryloylglycylphenylalanylleucylglycyl-thiazolidine-2-thione (MA-GFLG-TT)
step yield: 51.9%

N-methacyloylglycylphenylalanylleucylglycyl-gemcitabine (MA-GFLG-gemcitabine)
conjugation yield: 66.1%

N^α, N^ε-bis(4-maleimidomethyl-cyclohexanecarbonyl-glycylphenylalanlylleucylglycyl)lysine ((MAL-GFLG)2K)
crude mass [1]: 38 mg | crude yield [1]: 76%

N^α-(azidophenyl)-N^ε-(4-cyano-4-(phenylcarbonothioylthio)pentanoyl-glycylphenylalanylleucylglycyl)-lysine (CTP-GFLGK-N3; CTA 4)
crude mass (whole synthesis, scale 0.19 mmol loading): 85 mg
